Measured values taken from the supplement of paper PMC10849652.
The other results are listed elsewhere or left out.

By UniProt entry, the sequences of proteins in these tests, tags left out. Where a name states a change or a piece, a line headed by the entry shows the natural chain unless it says otherwise.
UniProt Q8TEA1: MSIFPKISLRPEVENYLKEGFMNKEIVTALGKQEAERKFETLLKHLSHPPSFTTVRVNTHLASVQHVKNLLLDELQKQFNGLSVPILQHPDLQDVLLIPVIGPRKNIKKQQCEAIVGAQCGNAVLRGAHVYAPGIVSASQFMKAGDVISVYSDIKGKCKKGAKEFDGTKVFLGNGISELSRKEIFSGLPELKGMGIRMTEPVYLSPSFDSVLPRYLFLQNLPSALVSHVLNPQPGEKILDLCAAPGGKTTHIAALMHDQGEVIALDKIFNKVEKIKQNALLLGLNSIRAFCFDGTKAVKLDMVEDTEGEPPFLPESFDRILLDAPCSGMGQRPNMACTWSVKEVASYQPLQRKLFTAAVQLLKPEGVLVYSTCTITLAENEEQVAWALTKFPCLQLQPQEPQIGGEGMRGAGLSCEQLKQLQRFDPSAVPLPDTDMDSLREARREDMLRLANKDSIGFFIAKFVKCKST
UniProt Q8NFH4: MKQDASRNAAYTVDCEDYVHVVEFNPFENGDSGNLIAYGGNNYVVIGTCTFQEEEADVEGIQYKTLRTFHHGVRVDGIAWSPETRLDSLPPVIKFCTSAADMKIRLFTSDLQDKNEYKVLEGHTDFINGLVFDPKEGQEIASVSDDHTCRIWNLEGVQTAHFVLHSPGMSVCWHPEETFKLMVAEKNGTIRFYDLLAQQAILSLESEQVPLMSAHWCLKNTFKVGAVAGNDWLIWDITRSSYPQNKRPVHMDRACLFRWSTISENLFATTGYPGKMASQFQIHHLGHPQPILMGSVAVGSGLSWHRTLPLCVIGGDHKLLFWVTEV
UniProt Q8N1F7: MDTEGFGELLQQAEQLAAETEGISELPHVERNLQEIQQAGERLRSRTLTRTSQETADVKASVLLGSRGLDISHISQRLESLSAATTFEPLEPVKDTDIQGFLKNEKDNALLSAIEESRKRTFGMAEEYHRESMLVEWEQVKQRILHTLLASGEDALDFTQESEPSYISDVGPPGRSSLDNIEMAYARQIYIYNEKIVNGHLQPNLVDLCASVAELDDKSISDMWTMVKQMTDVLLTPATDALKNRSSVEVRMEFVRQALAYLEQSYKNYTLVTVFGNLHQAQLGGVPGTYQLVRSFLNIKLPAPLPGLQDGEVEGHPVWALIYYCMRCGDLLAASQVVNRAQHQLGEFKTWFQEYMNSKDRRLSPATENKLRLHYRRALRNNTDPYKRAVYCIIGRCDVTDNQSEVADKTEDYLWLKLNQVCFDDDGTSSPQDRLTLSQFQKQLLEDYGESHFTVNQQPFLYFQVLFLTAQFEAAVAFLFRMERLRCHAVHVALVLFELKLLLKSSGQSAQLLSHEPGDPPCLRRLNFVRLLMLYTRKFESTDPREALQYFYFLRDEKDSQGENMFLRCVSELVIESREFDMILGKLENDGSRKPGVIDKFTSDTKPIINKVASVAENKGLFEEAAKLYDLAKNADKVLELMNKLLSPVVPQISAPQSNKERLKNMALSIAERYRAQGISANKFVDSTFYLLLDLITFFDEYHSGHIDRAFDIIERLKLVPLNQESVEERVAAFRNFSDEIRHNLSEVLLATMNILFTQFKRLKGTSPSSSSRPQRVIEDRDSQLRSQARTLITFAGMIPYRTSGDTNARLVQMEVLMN
UniProt Q8IVD9: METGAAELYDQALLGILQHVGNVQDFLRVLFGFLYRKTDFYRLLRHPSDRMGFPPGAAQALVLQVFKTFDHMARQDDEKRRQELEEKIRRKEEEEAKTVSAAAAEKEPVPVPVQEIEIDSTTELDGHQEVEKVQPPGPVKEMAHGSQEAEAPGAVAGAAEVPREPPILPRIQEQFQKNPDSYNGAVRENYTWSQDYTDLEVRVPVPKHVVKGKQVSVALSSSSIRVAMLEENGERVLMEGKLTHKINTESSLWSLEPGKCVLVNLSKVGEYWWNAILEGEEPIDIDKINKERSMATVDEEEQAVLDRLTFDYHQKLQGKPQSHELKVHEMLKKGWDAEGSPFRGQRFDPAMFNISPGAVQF
UniProt P13674: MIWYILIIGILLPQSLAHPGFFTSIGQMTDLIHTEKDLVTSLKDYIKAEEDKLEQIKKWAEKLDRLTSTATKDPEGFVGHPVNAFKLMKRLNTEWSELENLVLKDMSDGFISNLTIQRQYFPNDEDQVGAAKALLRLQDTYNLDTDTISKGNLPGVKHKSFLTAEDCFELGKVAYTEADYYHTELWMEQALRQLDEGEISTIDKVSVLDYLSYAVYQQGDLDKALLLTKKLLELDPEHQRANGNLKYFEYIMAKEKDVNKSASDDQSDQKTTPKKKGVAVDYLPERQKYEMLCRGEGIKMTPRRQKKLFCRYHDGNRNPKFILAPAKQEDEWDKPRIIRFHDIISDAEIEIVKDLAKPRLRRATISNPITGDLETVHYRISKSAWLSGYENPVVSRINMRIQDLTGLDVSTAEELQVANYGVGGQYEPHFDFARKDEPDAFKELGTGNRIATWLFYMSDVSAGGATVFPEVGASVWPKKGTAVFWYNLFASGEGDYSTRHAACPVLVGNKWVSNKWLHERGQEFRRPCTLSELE
UniProt P00480: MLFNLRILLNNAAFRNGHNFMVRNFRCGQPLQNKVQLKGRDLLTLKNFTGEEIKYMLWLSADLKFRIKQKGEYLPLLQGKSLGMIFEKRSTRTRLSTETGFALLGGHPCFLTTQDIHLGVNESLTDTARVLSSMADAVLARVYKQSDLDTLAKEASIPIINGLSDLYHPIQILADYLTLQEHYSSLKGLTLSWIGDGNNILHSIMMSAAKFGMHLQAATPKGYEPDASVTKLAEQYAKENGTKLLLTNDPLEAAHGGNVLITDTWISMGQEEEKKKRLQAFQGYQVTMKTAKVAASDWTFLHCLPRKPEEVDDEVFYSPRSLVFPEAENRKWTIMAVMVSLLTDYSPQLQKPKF
UniProt Q13438: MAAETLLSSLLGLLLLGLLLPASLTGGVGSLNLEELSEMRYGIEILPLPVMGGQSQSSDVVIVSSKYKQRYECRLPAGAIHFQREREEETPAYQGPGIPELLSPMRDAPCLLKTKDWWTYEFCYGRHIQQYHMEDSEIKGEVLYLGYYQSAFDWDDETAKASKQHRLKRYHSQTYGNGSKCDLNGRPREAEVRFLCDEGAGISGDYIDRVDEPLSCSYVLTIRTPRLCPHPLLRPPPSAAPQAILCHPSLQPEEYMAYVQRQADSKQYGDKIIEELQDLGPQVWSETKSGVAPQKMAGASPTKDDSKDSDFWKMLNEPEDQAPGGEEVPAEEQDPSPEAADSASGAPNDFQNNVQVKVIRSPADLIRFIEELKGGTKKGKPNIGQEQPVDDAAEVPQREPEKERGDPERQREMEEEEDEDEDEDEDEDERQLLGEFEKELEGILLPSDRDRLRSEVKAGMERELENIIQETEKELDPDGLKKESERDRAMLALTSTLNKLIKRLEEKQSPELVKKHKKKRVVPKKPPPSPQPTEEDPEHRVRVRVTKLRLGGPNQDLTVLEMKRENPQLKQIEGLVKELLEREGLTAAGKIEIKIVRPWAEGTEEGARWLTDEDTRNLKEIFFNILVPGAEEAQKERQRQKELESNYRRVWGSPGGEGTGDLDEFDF
UniProt P80303: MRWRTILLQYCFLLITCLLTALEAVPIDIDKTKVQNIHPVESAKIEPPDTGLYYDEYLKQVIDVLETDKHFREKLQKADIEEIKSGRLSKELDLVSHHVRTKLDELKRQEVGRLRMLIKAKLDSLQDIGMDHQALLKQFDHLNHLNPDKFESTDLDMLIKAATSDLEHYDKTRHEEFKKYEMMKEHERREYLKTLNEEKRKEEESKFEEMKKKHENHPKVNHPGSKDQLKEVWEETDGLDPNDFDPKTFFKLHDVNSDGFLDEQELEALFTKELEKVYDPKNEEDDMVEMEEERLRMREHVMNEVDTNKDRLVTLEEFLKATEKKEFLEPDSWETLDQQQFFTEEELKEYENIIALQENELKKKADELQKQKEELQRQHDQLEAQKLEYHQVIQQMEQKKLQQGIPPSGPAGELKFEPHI
UniProt Q9Y5N6: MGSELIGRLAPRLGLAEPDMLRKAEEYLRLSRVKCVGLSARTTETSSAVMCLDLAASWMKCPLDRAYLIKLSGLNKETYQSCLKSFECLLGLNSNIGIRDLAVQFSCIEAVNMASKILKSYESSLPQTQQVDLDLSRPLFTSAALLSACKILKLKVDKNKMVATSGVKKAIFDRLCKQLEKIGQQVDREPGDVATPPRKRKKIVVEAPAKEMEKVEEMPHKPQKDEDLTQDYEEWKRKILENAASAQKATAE
UniProt Q96FW1, whole entry, looked up: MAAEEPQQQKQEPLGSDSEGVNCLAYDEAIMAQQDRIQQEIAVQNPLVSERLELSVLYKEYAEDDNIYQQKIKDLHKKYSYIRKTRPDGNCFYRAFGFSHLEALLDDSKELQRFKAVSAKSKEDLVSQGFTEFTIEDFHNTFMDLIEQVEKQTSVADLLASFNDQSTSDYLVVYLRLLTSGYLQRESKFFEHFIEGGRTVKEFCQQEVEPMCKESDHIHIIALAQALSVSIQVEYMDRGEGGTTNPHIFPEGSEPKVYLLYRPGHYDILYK
UniProt Q9BXS6: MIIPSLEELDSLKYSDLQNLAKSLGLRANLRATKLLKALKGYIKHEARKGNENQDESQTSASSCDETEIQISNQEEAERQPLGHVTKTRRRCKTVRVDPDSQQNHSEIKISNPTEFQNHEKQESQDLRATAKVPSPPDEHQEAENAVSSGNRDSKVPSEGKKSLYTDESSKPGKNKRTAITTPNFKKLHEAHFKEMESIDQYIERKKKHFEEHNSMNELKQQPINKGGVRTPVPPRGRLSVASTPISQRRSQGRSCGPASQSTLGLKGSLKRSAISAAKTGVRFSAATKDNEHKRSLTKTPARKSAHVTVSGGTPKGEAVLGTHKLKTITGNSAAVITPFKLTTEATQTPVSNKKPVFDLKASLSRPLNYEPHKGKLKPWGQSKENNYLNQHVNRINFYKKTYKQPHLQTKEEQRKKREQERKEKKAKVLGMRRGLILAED
UniProt Q9H857: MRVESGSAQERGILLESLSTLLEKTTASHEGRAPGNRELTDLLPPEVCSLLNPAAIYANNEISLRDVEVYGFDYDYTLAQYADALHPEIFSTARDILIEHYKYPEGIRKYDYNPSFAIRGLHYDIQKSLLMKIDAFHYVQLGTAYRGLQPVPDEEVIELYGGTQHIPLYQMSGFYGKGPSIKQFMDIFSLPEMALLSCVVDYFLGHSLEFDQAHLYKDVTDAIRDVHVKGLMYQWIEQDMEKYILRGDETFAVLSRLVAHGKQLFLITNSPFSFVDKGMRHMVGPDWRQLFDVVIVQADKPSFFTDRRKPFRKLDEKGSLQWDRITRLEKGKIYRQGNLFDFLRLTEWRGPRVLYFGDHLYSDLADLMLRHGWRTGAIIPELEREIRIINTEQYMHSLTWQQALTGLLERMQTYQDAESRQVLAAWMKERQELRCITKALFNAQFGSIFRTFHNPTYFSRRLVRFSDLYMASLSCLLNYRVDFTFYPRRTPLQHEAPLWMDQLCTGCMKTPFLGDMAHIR
UniProt Q9Y5Y2: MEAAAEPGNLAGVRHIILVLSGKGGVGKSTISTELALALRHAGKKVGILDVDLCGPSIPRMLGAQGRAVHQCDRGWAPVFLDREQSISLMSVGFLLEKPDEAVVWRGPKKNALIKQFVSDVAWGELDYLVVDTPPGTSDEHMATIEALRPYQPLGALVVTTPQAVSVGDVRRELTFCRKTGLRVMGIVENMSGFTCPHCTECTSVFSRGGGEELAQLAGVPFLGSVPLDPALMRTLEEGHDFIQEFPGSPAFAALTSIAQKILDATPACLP
UniProt Q9BRJ7: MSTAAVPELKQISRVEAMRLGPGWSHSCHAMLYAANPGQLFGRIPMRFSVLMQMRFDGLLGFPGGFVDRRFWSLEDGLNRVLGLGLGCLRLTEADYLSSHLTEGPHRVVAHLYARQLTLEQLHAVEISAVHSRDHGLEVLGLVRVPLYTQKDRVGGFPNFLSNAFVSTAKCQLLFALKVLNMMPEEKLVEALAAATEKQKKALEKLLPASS
UniProt Q96RS6: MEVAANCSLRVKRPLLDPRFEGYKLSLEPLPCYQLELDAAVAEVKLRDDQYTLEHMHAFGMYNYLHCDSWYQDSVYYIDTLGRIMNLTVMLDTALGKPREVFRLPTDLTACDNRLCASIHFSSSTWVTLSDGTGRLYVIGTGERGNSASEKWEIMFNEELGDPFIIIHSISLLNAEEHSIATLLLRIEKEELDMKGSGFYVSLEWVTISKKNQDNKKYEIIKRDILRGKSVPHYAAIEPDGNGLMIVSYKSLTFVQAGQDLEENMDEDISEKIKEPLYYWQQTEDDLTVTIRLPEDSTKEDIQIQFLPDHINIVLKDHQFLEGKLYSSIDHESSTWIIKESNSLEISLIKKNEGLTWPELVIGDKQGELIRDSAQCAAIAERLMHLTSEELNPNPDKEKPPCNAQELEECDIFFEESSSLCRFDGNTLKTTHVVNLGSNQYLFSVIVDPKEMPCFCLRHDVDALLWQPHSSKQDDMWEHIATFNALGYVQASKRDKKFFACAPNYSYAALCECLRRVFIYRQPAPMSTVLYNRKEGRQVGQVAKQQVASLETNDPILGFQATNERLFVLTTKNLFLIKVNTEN

These targets were tested with CC[C@H](C)N1C=C(C2=C(C=C(C=C21)C3=CN=C(C=C3)N4CCNCC4)C(=O)NCC5=C(C=C(NC5=O)C)C)C (assay: log2 fold change, soluble protein after heating vs DMSO (PISA); higher = thermal stabilisation; K562 cells, 10 uM, 30 min; active = over 0.2 and 3.5 SD of the protein, either way, in both replicates (recomputed)).
Method in brief: (§1)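 Soluble protein was quantified by TMTpro 16plex LC-MS/MS after channel sums were equalised. It was obtained as the supernatant after 21,000xg for 90 min from pooled aliquots of K562 cells (2×10^6 cells/mL, 10 μM compound, 30 min) heated for 3 min across 48°C-58°C and extracted in PBS with 0.5% NP-40 at 4°C. Thermal stability values are relative to control samples and come from duplicates. They are given as log2 fold changes.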

log2 fold change, inactive:
NSUN6 (UniProt Q8TEA1) 0.033, NT5C (UniProt Q8TCD5) -0.021, NUP37 (UniProt Q8NFH4) -0.009, NUP93 (UniProt Q8N1F7) 0.083, OSBPL6 isoform 5 (UniProt Q9BZF3) 0.155, NUCB1 (UniProt Q02818) -0.037, NUDCD3 (UniProt Q8IVD9) 0.049, P4HB (UniProt P07237) -0.012, P4HA1 (UniProt P13674) 0.005, OTC (UniProt P00480) -0.267, OS9 (UniProt Q13438) -0.011, NUP133 (UniProt Q8WUM0) 0.017, NUP50 (UniProt Q9UKX7) 0.022, NUCB2 (UniProt P80303) -0.01, ORC6 (UniProt Q9Y5N6) 0.045, OIP5 (UniProt O43482) 0.017, OTUB1 (UniProt Q96FW1) 0.019, PA2G4 (UniProt Q9UQ80) 0.04, NUDT19 (UniProt A8MXV4) 0.026, NUSAP1 (UniProt Q9BXS6) -0.207, NT5DC2 isoform 2 (UniProt Q9H857) -0.022, NUBP2 (UniProt Q9Y5Y2) 0.037, NUB1 (UniProt Q9Y5A7) 0.065, ORC4 (UniProt O43929) 0.082, NUDT16L1 (UniProt Q9BRJ7) -0.048, NUDCD1 (UniProt Q96RS6) 0.025, NUP214 isoform 5 (UniProt P35658) 0.056, OMA1 (UniProt Q96E52) -0.051, OXCT1 (UniProt P55809) 0.008, NSRP1 (UniProt Q9H0G5) 0.02, NUDT3 (UniProt O95989) -0.049

What follows are targets tested with CC[C@H](C)[C@@H](C(=O)N[C@@H]([C@@H](C)O)C(=O)N[C@@H](CC(C)C)C(=O)[C@]1(CO1)C)NC(=O)[C@H]([C@@H](C)CC)N(C)C(=O)C [epoxomicin] in the same assay as above.
Method in brief: as §1

log2 fold change, inactive:
NSUN6 (UniProt Q8TEA1) 0.065, NT5C (UniProt Q8TCD5) 0.003, NUP37 (UniProt Q8NFH4) 0.027, NUP93 (UniProt Q8N1F7) -0.011, OSBPL6 isoform 5 (UniProt Q9BZF3) -0.84, NUCB1 (UniProt Q02818) 0.031, NUDCD3 (UniProt Q8IVD9) 0.028, P4HB (UniProt P07237) -0.019, P4HA1 (UniProt P13674) -0.018, OTC (UniProt P00480) -0.146, OS9 (UniProt Q13438) 0.043, NUP133 (UniProt Q8WUM0) -0.089, NUP50 (UniProt Q9UKX7) 0.009, NUCB2 (UniProt P80303) -0.006, ORC6 (UniProt Q9Y5N6) 0.184, OIP5 (UniProt O43482) -0.013, OTUB1 (UniProt Q96FW1) 0.055, PA2G4 (UniProt Q9UQ80) 0.079, NUDT19 (UniProt A8MXV4) 0.016, NUSAP1 (UniProt Q9BXS6) -0.124, NT5DC2 isoform 2 (UniProt Q9H857) -0.004, NUBP2 (UniProt Q9Y5Y2) -0.005, NUB1 (UniProt Q9Y5A7) 0.04, ORC4 (UniProt O43929) 0.042, NUDT16L1 (UniProt Q9BRJ7) 0.015, NUDCD1 (UniProt Q96RS6) 0.028, NUP214 isoform 5 (UniProt P35658) 0.022, OMA1 (UniProt Q96E52) 0.001, OXCT1 (UniProt P55809) 0.05, NSRP1 (UniProt Q9H0G5) -0.128, NUDT3 (UniProt O95989) -0.007
